Test results taken from PMC2391170.
No constants are given. Whether binding was seen depends on the method and setting. Some results given as binding are weak or reduced against the parent protein; the word gives no strength.

Target: T1, AtCPSF100 (Arabidopsis) (UniProt Q9LKF9)
T1 sequence: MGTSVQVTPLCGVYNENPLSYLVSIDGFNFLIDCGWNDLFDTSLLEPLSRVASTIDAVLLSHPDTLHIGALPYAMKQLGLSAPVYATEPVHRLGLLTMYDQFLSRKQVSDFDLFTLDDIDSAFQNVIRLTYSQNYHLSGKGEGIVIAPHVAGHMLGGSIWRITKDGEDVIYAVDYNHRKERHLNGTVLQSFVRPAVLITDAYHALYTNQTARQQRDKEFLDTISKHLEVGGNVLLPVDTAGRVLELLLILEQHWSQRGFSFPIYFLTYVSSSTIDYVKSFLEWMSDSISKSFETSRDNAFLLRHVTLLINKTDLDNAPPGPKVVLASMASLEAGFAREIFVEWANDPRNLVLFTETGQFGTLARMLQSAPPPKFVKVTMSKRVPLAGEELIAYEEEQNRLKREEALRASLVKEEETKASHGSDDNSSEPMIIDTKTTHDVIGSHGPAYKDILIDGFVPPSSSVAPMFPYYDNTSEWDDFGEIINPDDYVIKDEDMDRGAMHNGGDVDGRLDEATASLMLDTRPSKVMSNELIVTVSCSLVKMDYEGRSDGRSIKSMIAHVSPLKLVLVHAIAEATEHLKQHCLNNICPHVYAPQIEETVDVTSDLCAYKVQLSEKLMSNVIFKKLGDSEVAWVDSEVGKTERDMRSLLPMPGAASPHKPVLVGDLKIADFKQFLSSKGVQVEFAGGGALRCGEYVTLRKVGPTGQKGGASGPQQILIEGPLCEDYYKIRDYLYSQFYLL
Experiment: two-hybrid; AD (pGAD-C(1)) and BD (pGBD-C(1)) fusions in yeast PJ69-4; dual transformants tested on media lacking leucine, tryptophan and adenine; positive if all tested colonies (4 to 10) grew; both combinations of clones tested whenever possible

B1: AtCPSF160 (protein, UniProt Q9FGR0 1-1442)
chain: MSFAAYKMMHWPTGVENCASGYITHSLSDSTLQIPIVSVHDDIEAEWPNPKRGIGPLPNVVITAANILEVYIVRAQEEGNTQELRNPKLAKRGGVMDGVYGVSLELVCHYRLHGNVESIAVLPMGGGNSSKGRDSIILTFRDAKISVLEFDDSIHSLRMTSMHCFEGPDWLHLKRGRESFPRGPLVKVDPQGRCGGVLVYGLQMIILKTSQVGSGLVGDDDAFSSGGTVSARVESSYIINLRDLEMKHVKDFVFLHGYIEPVIVILQEEEHTWAGRVSWKHHTCVLSALSINSTLKQHPVIWSAINLPHDAYKLLAVPSPIGGVLVLCANTIHYHSQSASCALALNNYASSADSSQELPASNFSVELDAAHGTWISNDVALLSTKSGELLLLTLIYDGRAVQRLDLSKSKASVLASDITSVGNSLFFLGSRLGDSLLVQFSCRSGPAASLPGLRDEDEDIEGEGHQAKRLRMTSDTFQDTIGNEELSLFGSTPNNSDSAQKSFSFAVRDSLVNVGPVKDFAYGLRINADANATGVSKQSNYELVCCSGHGKNGALCVLRQSIRPEMITEVELPGCKGIWTVYHKSSRGHNADSSKMAADEDEYHAYLIISLEARTMVLETADLLTEVTESVDYYVQGRTIAAGNLFGRRRVIQVFEHGARILDGSFMNQELSFGASNSESNSGSESSTVSSVSIADPYVLLRMTDDSIRLLVGDPSTCTVSISSPSVLEGSKRKISACTLYHDKGPEPWLRKASTDAWLSSGVGEAVDSVDGGPQDQGDIYCVVCYESGALEIFDVPSFNCVFSVDKFASGRRHLSDMPIHELEYELNKNSEDNTSSKEIKNTRVVELAMQRWSGHHTRPFLFAVLADGTILCYHAYLFDGVDSTKAENSLSSENPAALNSSGSSKLRNLKFLRIPLDTSTREGTSDGVASQRITMFKNISGHQGFFLSGSRPGWCMLFRERLRFHSQLCDGSIAAFTVLHNVNCNHGFIYVTAQGVLKICQLPSASIYDNYWPVQKIPLKATPHQVTYYAEKNLYPLIVSYPVSKPLNQVLSSLVDQEAGQQLDNHNMSSDDLQRTYTVEEFEIQILEPERSGGPWETKAKIPMQTSEHALTVRVVTLLNASTGENETLLAVGTAYVQGEDVAARGRVLLFSFGKNGDNSQNVVTEVYSRELKGAISAVASIQGHLLISSGPKIILHKWNGTELNGVAFFDAPPLYVVSMNVVKSFILLGDVHKSIYFLSWKEQGSQLSLLAKDFESLDCFATEFLIDGSTLSLAVSDEQKNIQVFYYAPKMIESWKGLKLLSRAEFHVGAHVSKFLRLQMVSSGADKINRFALLFGTLDGSFGCIAPLDEVTFRRLQSLQKKLVDAVPHVAGLNPLAFRQFRSSGKARRSGPDSIVDCELLCHYEMLPLEEQLELAHQIGTTRYSILKDLVDLSVGTSFL
- binding: binds
